This is one part of the list.
The molecules below were run on SARS-CoV-2 5_SL2+3 RNA (assay: NMR binding call after quantification (hit when 2 of 3 NMR criteria are met) (binary (1 = binding, 0 = not binding)); higher = binding). Settings: RNA concentration 10 µM; fragment concentration 200 µM; 293 K.

Row | SMILES | NMR binding call
1 | CCc1noc(C)c1C(=O)Nc1cc(C)on1 | 0
2 | Cn1cc(C(N)=O)c(C(F)F)n1 | 0
3 | Cc1cc(C(=O)Nc2ccc3[nH]ccc3c2)no1 | 0
4 | CC(=O)NCc1cn[nH]c1 | 0
5 | Oc1ccc(CN2CCCC2)c2cccnc12 | 0
6 | Cc1ccccc1OCC(=O)Nc1ncccn1 | 0
7 | O=C(Nc1ccc(-n2cnnn2)cc1)C1CCC1 | 0
8 | CS(=O)(=O)Nc1ccc(CN)cc1.Cl | 0
9 | CC(C)C(=O)NCc1nc2ccccc2[nH]1 | 0
10 | CNC(=O)Nc1nc2ccc(OC)cc2s1 | 0
11 | CC(=O)Nc1ccc2[nH]c(=O)[nH]c2c1 | 0
12 | CNC(=O)c1nc2ccccc2c(=O)[nH]1 | 0
13 | c1ccc(CNC2CCNC2)cc1 (stereo unspecified) | 0
14 | CC1CCC(NC2CCC(O)CC2)CC1 (stereo unspecified) | 0
15 | Cc1cccc(CN2CCOCC2)c1 | 0
16 | Cl.Cl.O=C(c1ccncc1)N1CCNCC1 | 0
17 | COCC(=O)Nc1nc(-c2ccccc2)cs1 | 0
18 | Cc1ccc(N2CCN(C(N)=O)CC2)cc1 | 0
19 | O=C(NCCc1ccc(O)cc1)c1ccccn1 | 0
20 | O=C1CN(C(=O)COc2ccccc2)CCN1 | 0

Row | SMILES | NMR binding call
21 | COc1ccc(CN2CCOCC2)cc1OC | 0
22 | NCc1ccc(-c2cccs2)cc1 | 0
23 | CC1CCCN(C(=O)CO)C1 (stereo unspecified) | 0
24 | O=C(NO)c1ccc2ccccc2n1 | 0
25 | COC(=O)C1CCN(CC(N)=O)CC1 | 0
26 | CN(C)Cc1nc(C2(N)CCCC2)no1 | 0
27 | Cc1ccc(NC(=O)C2CCCO2)nc1 (stereo unspecified) | 0
28 | CS(=O)(=O)c1nccn1Cc1cscn1 | 0
29 | CC(CO)(CO)NC(=O)Nc1ccccc1 | 0
30 | CN1CCN(c2ccc(C#N)cc2)CC1 | 0
31 | CC(=O)c1ccc(OC(F)F)cc1 | 0
32 | Cc1ccc(OCC(=O)Nc2cc(C)on2)cc1 | 0
33 | Cl.NC1CCN(S(=O)(=O)c2ccccc2)C1 (stereo unspecified) | 0
34 | Cc1cc(CN(C)C(=O)NC2CC2)no1 | 0
35 | CC(C)NCc1ccc(N(C)C)cc1 | 0
36 | CC(=O)Nc1ccc(NC(=O)C2CC2(C)C)cc1 (stereo unspecified) | 0
37 | CCOC(=O)c1sc(N(C)C(C)=O)nc1C | 0
38 | Cc1cc(N2CCNCC2)nc(C)n1 | 0
39 | CC(=O)Nc1cc(C)n[nH]1 | 0
40 | OCc1ccc(-n2cnc3ccccc32)cc1 | 0

What follows are molecules tested on SARS-CoV-2 5_SL4 RNA in the same assay as above. Settings: RNA concentration 10 µM; fragment concentration 200 µM; 293 K.

Row | SMILES | NMR binding call
41 | CCc1noc(C)c1C(=O)Nc1cc(C)on1 | 0
42 | Cn1cc(C(N)=O)c(C(F)F)n1 | 0
43 | CC(=O)NCc1cn[nH]c1 | 0
44 | Oc1ccc(CN2CCCC2)c2cccnc12 | 0
45 | Cc1ccccc1OCC(=O)Nc1ncccn1 | 0
46 | O=C(Nc1ccc(-n2cnnn2)cc1)C1CCC1 | 0
47 | CS(=O)(=O)Nc1ccc(CN)cc1.Cl | 0
48 | CC(C)C(=O)NCc1nc2ccccc2[nH]1 | 0
49 | CNC(=O)Nc1nc2ccc(OC)cc2s1 | 1
50 | CC(=O)Nc1ccc2[nH]c(=O)[nH]c2c1 | 0
51 | CNC(=O)c1nc2ccccc2c(=O)[nH]1 | 0
52 | c1ccc(CNC2CCNC2)cc1 (stereo unspecified) | 0
53 | CC1CCC(NC2CCC(O)CC2)CC1 (stereo unspecified) | 0
54 | Cc1cccc(CN2CCOCC2)c1 | 0
55 | Cl.Cl.O=C(c1ccncc1)N1CCNCC1 | 0
56 | O=C(NCCc1ccc(O)cc1)c1ccccn1 | 0
57 | O=C1CN(C(=O)COc2ccccc2)CCN1 | 0
58 | COc1ccc(CN2CCOCC2)cc1OC | 0

Row | SMILES | NMR binding call
59 | CC1CCCN(C(=O)CO)C1 (stereo unspecified) | 0
60 | O=C(NO)c1ccc2ccccc2n1 | 0
61 | COC(=O)C1CCN(CC(N)=O)CC1 | 0
62 | CN(C)Cc1nc(C2(N)CCCC2)no1 | 0
63 | Cc1ccc(NC(=O)C2CCCO2)nc1 (stereo unspecified) | 0
64 | CS(=O)(=O)c1nccn1Cc1cscn1 | 0
65 | CC(CO)(CO)NC(=O)Nc1ccccc1 | 0
66 | CN1CCN(c2ccc(C#N)cc2)CC1 | 0
67 | CC(=O)c1ccc(OC(F)F)cc1 | 0
68 | Cc1ccc(OCC(=O)Nc2cc(C)on2)cc1 | 0
69 | Cl.NC1CCN(S(=O)(=O)c2ccccc2)C1 (stereo unspecified) | 0
70 | Cc1cc(CN(C)C(=O)NC2CC2)no1 | 0
71 | CC(C)NCc1ccc(N(C)C)cc1 | 0
72 | CC(=O)Nc1ccc(NC(=O)C2CC2(C)C)cc1 (stereo unspecified) | 0
73 | CCOC(=O)c1sc(N(C)C(C)=O)nc1C | 0
74 | Cc1cc(N2CCNCC2)nc(C)n1 | 0
75 | CC(=O)Nc1cc(C)n[nH]1 | 0
76 | OCc1ccc(-n2cnc3ccccc32)cc1 | 0

What follows are molecules tested on SARS-CoV-2 5_SL5 RNA in the same assay as above. Settings: RNA concentration 10 µM; fragment concentration 200 µM; 293 K.

Row | SMILES | NMR binding call
77 | CCc1noc(C)c1C(=O)Nc1cc(C)on1 | 0
78 | Cn1cc(C(N)=O)c(C(F)F)n1 | 0
79 | Cc1cc(C(=O)Nc2ccc3[nH]ccc3c2)no1 | 0
80 | O=C(Nc1ccc(-n2cnnn2)cc1)C1CCC1 | 0
81 | CC(C)C(=O)NCc1nc2ccccc2[nH]1 | 0
82 | c1ccc(CNC2CCNC2)cc1 (stereo unspecified) | 0
83 | CC1CCC(NC2CCC(O)CC2)CC1 (stereo unspecified) | 0
84 | Cc1cccc(CN2CCOCC2)c1 | 0
85 | COCC(=O)Nc1nc(-c2ccccc2)cs1 | 0
86 | Cc1ccc(N2CCN(C(N)=O)CC2)cc1 | 0
87 | O=C(NCCc1ccc(O)cc1)c1ccccn1 | 0
88 | O=C1CN(C(=O)COc2ccccc2)CCN1 | 0
89 | COc1ccc(CN2CCOCC2)cc1OC | 0
90 | NCc1ccc(-c2cccs2)cc1 | 0
91 | CC1CCCN(C(=O)CO)C1 (stereo unspecified) | 0
92 | COC(=O)C1CCN(CC(N)=O)CC1 | 0
93 | Cc1ccc(NC(=O)C2CCCO2)nc1 (stereo unspecified) | 0
94 | CS(=O)(=O)c1nccn1Cc1cscn1 | 0
95 | CC(CO)(CO)NC(=O)Nc1ccccc1 | 0
96 | CC(=O)c1ccc(OC(F)F)cc1 | 0
97 | Cc1ccc(OCC(=O)Nc2cc(C)on2)cc1 | 0
98 | Cl.NC1CCN(S(=O)(=O)c2ccccc2)C1 (stereo unspecified) | 0
99 | CC(C)NCc1ccc(N(C)C)cc1 | 0
100 | CCOC(=O)c1sc(N(C)C(C)=O)nc1C | 0
101 | CC(=O)Nc1cc(C)n[nH]1 | 0

From the supplement of paper PMC8426693
